# ± gives the standard deviation of the averaged measurements. This is a selection; strong and weak results do not stand in their true shares.
# Legend:
# Experiment in all cases: NP40-soluble protein abundance relative to vehicle (solubility fold change) (ratio); higher = more soluble protein in presence of ATP
# [1] = target: T1, UniProt O75688 and related entries
# T1 sequence (whole entry): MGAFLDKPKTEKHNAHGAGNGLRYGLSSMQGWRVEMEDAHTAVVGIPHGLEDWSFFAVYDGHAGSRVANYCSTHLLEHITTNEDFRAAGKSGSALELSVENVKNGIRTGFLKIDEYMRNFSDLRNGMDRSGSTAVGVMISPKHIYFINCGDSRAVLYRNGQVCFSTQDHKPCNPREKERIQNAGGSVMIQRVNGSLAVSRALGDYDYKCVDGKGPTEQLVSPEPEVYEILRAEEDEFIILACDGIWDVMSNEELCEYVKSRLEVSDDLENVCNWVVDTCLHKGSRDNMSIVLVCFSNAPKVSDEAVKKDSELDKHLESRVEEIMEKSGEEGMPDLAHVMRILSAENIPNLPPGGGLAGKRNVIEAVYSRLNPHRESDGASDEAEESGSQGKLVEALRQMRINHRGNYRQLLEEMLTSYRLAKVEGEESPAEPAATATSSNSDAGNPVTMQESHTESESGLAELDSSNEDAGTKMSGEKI
# Outline: (§1)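 Crude Jurkat lysate, prepared by Dounce homogenisation, was exposed to eight concentrations from 0.1 to 10 mM for 10 min at room temperature and then 3 min at 37 °C. Solubilisation used 0.8% NP40 with benzonase for 60 min at 4 °C, followed by ultracentrifugation and TMT labelling of the supernatant for LC-MS/MS. After vsn normalisation of intensities, each value is the fold change against the detergent-processed vehicle within each replicate, across three independent experiments.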
# UniProt O75845 = target: T2, UniProt O75845
# T2 sequence (whole entry): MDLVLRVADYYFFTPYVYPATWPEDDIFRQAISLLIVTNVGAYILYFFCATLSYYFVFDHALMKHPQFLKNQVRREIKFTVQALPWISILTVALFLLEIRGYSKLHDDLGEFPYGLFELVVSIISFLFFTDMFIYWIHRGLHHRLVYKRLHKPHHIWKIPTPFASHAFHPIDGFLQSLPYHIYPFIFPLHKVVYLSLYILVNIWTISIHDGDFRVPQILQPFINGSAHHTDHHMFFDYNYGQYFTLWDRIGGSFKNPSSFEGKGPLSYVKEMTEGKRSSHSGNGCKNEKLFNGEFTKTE
# Outline: as §1
# UniProt O75934 = target: T3, UniProt O75934
# T3 sequence (whole entry): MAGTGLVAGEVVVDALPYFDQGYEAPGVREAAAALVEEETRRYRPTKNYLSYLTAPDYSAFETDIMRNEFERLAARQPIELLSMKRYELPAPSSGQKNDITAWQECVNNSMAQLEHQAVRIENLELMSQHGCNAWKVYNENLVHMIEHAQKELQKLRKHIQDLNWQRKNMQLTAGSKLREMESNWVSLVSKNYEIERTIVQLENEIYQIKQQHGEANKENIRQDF
# Outline: as §1
# [2] = target: T4, UniProt O94864 and related entries
# T4 sequence (whole entry): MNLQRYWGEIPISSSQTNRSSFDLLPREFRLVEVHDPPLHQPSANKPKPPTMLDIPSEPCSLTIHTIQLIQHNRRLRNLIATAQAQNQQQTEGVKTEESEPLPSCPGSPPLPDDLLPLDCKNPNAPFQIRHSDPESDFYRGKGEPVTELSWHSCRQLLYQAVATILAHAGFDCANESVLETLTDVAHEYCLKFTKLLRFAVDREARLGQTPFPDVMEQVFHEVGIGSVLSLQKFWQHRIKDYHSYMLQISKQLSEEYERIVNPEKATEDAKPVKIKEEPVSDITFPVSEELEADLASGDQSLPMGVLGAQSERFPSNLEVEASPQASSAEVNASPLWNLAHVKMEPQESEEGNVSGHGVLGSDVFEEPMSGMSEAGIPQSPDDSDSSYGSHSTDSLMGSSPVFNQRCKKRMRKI
# Outline: as §1
# [3] = target: T5, UniProt O95479 and related entries
# T5 sequence (whole entry): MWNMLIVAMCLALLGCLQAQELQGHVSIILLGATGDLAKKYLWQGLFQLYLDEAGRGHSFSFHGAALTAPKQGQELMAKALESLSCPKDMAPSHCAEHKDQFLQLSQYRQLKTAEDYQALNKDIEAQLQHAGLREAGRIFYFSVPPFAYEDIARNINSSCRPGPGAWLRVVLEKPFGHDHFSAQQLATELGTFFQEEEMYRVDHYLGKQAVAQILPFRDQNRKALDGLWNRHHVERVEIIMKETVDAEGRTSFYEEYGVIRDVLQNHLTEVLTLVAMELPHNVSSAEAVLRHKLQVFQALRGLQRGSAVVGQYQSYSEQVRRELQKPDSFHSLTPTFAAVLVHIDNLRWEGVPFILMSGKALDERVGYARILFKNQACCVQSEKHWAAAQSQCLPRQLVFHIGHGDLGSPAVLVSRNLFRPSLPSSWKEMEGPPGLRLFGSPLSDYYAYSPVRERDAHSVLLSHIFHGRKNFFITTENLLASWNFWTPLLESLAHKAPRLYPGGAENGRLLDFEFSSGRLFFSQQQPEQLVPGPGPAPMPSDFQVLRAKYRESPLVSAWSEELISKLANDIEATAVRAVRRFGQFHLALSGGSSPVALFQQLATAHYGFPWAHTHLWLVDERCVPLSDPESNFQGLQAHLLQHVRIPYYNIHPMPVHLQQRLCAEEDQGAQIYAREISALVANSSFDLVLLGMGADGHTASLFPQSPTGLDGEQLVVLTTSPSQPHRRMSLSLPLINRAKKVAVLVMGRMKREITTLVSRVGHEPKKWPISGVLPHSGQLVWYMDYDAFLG
# Outline: as §1
# [4] = target: T6, UniProt O95487 and related entries
# T6 sequence (whole entry): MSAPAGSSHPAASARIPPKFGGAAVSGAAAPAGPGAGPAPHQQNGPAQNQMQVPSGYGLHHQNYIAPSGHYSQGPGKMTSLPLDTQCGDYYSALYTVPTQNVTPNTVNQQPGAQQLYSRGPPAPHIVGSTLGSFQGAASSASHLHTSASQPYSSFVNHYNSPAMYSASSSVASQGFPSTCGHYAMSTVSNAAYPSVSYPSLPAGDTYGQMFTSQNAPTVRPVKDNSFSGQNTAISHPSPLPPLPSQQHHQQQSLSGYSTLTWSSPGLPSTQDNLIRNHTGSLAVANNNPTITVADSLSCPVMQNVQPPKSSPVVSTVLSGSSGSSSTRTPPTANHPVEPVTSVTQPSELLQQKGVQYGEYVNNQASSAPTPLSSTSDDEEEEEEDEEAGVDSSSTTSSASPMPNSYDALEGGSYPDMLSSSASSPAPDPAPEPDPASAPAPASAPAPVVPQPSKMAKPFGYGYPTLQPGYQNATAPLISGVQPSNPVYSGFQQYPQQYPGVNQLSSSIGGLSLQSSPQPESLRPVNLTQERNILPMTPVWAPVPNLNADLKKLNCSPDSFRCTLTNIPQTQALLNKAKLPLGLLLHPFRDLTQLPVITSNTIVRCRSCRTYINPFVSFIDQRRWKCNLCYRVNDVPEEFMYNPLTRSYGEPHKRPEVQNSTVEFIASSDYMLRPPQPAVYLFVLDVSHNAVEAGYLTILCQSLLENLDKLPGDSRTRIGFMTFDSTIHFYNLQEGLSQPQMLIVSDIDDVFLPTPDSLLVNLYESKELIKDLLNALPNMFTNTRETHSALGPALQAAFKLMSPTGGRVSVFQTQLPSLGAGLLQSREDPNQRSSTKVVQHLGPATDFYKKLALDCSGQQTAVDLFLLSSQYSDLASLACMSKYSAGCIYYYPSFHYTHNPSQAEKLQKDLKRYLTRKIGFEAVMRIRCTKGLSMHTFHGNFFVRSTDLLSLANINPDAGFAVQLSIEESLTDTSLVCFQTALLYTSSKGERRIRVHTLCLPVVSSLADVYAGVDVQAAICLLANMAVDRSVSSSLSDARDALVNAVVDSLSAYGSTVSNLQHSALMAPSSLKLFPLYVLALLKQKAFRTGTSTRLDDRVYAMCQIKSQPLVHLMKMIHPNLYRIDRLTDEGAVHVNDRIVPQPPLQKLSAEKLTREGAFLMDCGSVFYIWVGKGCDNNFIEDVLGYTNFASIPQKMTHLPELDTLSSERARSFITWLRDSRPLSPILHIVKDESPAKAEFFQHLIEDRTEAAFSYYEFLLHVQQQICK
# Outline: as §1
# UniProt O95684-2 = target: T7, UniProt O95684-2
# T7 sequence (whole entry): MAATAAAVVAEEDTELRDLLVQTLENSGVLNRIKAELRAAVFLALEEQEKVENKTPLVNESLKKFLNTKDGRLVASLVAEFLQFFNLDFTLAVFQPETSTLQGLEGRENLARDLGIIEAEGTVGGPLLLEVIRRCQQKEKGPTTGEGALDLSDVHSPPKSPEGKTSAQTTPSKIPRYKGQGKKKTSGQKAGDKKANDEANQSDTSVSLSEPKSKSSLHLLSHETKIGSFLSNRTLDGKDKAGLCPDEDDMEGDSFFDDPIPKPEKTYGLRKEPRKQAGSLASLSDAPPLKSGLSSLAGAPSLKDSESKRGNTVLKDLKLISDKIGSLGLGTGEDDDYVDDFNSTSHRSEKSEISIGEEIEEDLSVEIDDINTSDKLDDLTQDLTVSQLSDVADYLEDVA
# Outline: as §1
# UniProt O95777 = target: T8, UniProt O95777
# T8 sequence (whole entry): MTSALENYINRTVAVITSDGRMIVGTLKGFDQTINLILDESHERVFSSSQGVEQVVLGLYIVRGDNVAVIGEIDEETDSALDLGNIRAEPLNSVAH
# Outline: as §1
# VAMP5 = target: T9, VAMP5 (UniProt O95183)
# T9 sequence (whole entry): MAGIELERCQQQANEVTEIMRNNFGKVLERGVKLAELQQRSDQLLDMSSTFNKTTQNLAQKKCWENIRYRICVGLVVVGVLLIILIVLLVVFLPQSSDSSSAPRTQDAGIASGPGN
# Outline: as §1
structure (smiles),measurement,setting,value
Nc1ncnc2c1ncn2[C@@H]1O[C@H](COP(=O)(O)OP(=O)(O)OP(=O)(O)O)[C@@H](O)[C@H]1O [adenosine triphosphate],NP40-soluble protein abundance,[1]; concentration: 1mM,0.981 ± 0.047
same,NP40-soluble protein abundance,[1]; concentration: 2mM,0.977 ± 0.037
same,NP40-soluble protein abundance,[1]; concentration: 4mM,0.959 ± 0.056
same,NP40-soluble protein abundance,[1]; concentration: 6mM,0.964 ± 0.013
same,NP40-soluble protein abundance,[1]; concentration: 8mM,0.934 ± 0.048
same,NP40-soluble protein abundance,[1]; concentration: 10mM,0.965 ± 0.082
same,NP40-soluble protein abundance,UniProt O75845; concentration: 1mM,1.01 ± 0.085
same,NP40-soluble protein abundance,UniProt O75845; concentration: 2mM,0.998 ± 0.079
same,NP40-soluble protein abundance,UniProt O75845; concentration: 4mM,1.05 ± 0.096
same,NP40-soluble protein abundance,UniProt O75845; concentration: 6mM,0.957 ± 0.077
same,NP40-soluble protein abundance,UniProt O75845; concentration: 8mM,1.02 ± 0.035
same,NP40-soluble protein abundance,UniProt O75845; concentration: 10mM,0.987 ± 0.072
same,NP40-soluble protein abundance,UniProt O75934; concentration: 1mM,1.02 ± 0.072
same,NP40-soluble protein abundance,UniProt O75934; concentration: 2mM,1 ± 0.06
same,NP40-soluble protein abundance,UniProt O75934; concentration: 4mM,1.05 ± 0.057
same,NP40-soluble protein abundance,UniProt O75934; concentration: 6mM,1.1 ± 0.093
same,NP40-soluble protein abundance,UniProt O75934; concentration: 8mM,1.14 ± 0.054
same,NP40-soluble protein abundance,UniProt O75934; concentration: 10mM,1.11 ± 0.06
same,NP40-soluble protein abundance,[2]; concentration: 1mM,0.995 ± 0.057
same,NP40-soluble protein abundance,[2]; concentration: 2mM,0.947 ± 0.097
same,NP40-soluble protein abundance,[2]; concentration: 4mM,0.965 ± 0.1
same,NP40-soluble protein abundance,[2]; concentration: 6mM,0.992 ± 0.086
same,NP40-soluble protein abundance,[2]; concentration: 8mM,1.04 ± 0.087
same,NP40-soluble protein abundance,[2]; concentration: 10mM,0.913 ± 0.11
same,NP40-soluble protein abundance,[3]; concentration: 1mM,1.06 ± 0.083
same,NP40-soluble protein abundance,[3]; concentration: 2mM,1.02 ± 0.049
same,NP40-soluble protein abundance,[3]; concentration: 4mM,1.04 ± 0.056
same,NP40-soluble protein abundance,[3]; concentration: 6mM,0.99 ± 0.13
same,NP40-soluble protein abundance,[3]; concentration: 8mM,1.01 ± 0.033
same,NP40-soluble protein abundance,[3]; concentration: 10mM,0.987 ± 0.031
same,NP40-soluble protein abundance,[4]; concentration: 1mM,1.07 ± 0.023
same,NP40-soluble protein abundance,[4]; concentration: 2mM,1.07 ± 0.01
same,NP40-soluble protein abundance,[4]; concentration: 4mM,1.1 ± 0.047
same,NP40-soluble protein abundance,[4]; concentration: 6mM,1.04 ± 0.042
same,NP40-soluble protein abundance,[4]; concentration: 8mM,1.07 ± 0.039
same,NP40-soluble protein abundance,[4]; concentration: 10mM,1.08 ± 0.037
same,NP40-soluble protein abundance,UniProt O95684-2; concentration: 1mM,0.91 ± 0.059
same,NP40-soluble protein abundance,UniProt O95684-2; concentration: 2mM,0.936 ± 0.012
same,NP40-soluble protein abundance,UniProt O95684-2; concentration: 4mM,0.921 ± 0.025
same,NP40-soluble protein abundance,UniProt O95684-2; concentration: 6mM,0.958 ± 0.052
same,NP40-soluble protein abundance,UniProt O95684-2; concentration: 8mM,0.9035 ± 0.0049
same,NP40-soluble protein abundance,UniProt O95684-2; concentration: 10mM,0.887 ± 0.056
same,NP40-soluble protein abundance,UniProt O95777; concentration: 1mM,1.08 ± 0.021
same,NP40-soluble protein abundance,UniProt O95777; concentration: 2mM,1.05 ± 0.067
same,NP40-soluble protein abundance,UniProt O95777; concentration: 4mM,1.03 ± 0.032
same,NP40-soluble protein abundance,UniProt O95777; concentration: 6mM,1.01 ± 0.088
same,NP40-soluble protein abundance,UniProt O95777; concentration: 8mM,1.02 ± 0.036
same,NP40-soluble protein abundance,UniProt O95777; concentration: 10mM,1 ± 0.036
same,NP40-soluble protein abundance,VAMP5; concentration: 1mM,0.953 ± 0.052
same,NP40-soluble protein abundance,VAMP5; concentration: 2mM,0.93 ± 0.045
same,NP40-soluble protein abundance,VAMP5; concentration: 4mM,0.981 ± 0.029
same,NP40-soluble protein abundance,VAMP5; concentration: 6mM,1.04 ± 0.052
same,NP40-soluble protein abundance,VAMP5; concentration: 8mM,0.934 ± 0.04
same,NP40-soluble protein abundance,VAMP5; concentration: 10mM,0.863 ± 0.1

# Rewritten with tabs: part of the list above.
structure (smiles)	measurement	setting	value
Nc1ncnc2c1ncn2[C@@H]1O[C@H](COP(=O)(O)OP(=O)(O)OP(=O)(O)O)[C@@H](O)[C@H]1O [adenosine triphosphate]	NP40-soluble protein abundance	[2]; concentration: 2mM	0.947 ± 0.097
same	NP40-soluble protein abundance	[2]; concentration: 4mM	0.965 ± 0.1
